From patent US20130266605A1, “PEPTIDE INHIBITORS OF CD40L SIGNALING AND USES THEREFOR” (PHYLOGICA LIMITED, priority 2010, published 2013)
Substitutions are numbered along the chain they refer to. Results are given in words; binding and its absence hold for the method and conditions named. Some results given as binding are weak or reduced against the parent protein; the word gives no strength.

T1: CD40 ligand (UniProt P29965 108-261, limits assumed)
T1 sequence (looked up): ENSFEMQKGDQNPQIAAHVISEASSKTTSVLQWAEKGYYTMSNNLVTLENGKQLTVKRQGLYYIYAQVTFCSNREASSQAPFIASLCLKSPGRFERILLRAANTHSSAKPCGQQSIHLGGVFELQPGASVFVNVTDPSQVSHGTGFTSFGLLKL

B1: M09_40L_0104_0786 (peptide)
peptide: ELLPECAYTYGIDNILSEFGIKYFISEGKAIDYASPKSMYGTNTPIAAPSGVCAFGRDMDSSYQVWSDFMGYPGN
B2: M09_40L_0104_0788 (peptide)
peptide: ELHCSCYYYTENDHNYYWDDHYNSYYVVQYNHKYYWDYHYDCYYVVEKHSN
B3: M09_40L_0104_0789 (peptide)
peptide: ELLLAEQAGTLKSELEAMPLGEYEHAARYVSEVECNWKTFAGNYSECDHCHANHQDWITDIELEESELEVNDYHWILHYTHDEDVEDEMRIHDEHEAKFYYFWPNFTGN
B4: M09_40L_0104_0790 (peptide)
peptide: ELLCSSNNRTYYFEEHCSCYYYTENDHNYYWDDHYNSYYVVQYNHKYYWDYHYDCYYVVEKQCN
B5: M09_40L_104_0791 (peptide)
peptide: ELLAYGKSTEDKQDFLLFHVNLDPHAAQTFEFEVPLWEFGLPDDASVEVEDLLNGNRFTWHGKWQWLELDPQTRPYAVWRLYAPGMPRCN
B6: M06_40L_0103_0801 (peptide)
peptide: LWTSSSDLDDAAPWVWHLPNDLSQDPFEDWAELHRIPQKQSVR
B7: M06_40L_0103_0807 (peptide)
peptide: LMMDRITDISADGGLHGKGHVVAEFDIHPDLWFFECHFP
B8: M06_40L_0104_0825 (peptide)
peptide: HKEYNYWEKHKDDKYYYWNTYKEYNYWEKHKDDKCYWNEKDTKSNSC
B9: M06_40L_0104_0829 (peptide)
peptide: LSDYECPPVFLSGGDVPRCWVAVRGFEFFGRDFRCGEV
B10: M06_40L_0104_0840 (peptide)
peptide: PGQFQLTRVFSDYECPPVFLSGGDVPRCWVAVRGFEFFGRDFRCGEV
B11: M07_40L_0104_0853 (peptide)
peptide: RFFKRDLNNFCYQADTFNAYCN
B12: M07_40L_0104_0895 (peptide)
peptide: RWYLGNQTAADDYLLESYGEHPQFPWTTQHIPK
B13: M08_40L_0105_0897 (peptide)
peptide: ELLLQNGTSSMVIFDPLAPGMLEDPYSTYAILRSGDPVHWHDGLKAWVLTGHRDCLYVLQNPDSFSCNCWAGEPSSEAHTDTYFETNENWIMVNSFNTGNYGGCPMNQMAAIDDFTALYNDHPSNSC
B14: M08_40L_0105_0898 (peptide)
peptide: ELHCSCYYYTENDHNYYWDDHYNSYYVVQYNHKYYWDYHYDCYYVVEKHSNSC
B15: M08_40L_0105_0899 (peptide)
peptide: ELLIPLKWSIRYYICYRGLAAYSGCFGGEALSEEALPFEERYYPDAERYLGYYSNSC
B16: M08_40L_0105_0900 (peptide)
peptide: ELRTPGSSHNYCWDDHYNSYYVVQYNHKYYWDYHYDCYYVVEKHCNSC
B17: M08_40L_0105_0901 (peptide)
peptide: ELPKRSMIVAMSTVITLDFILFHTTSSLLGSFDSNSC
B18: M08_40L_0105_0907 (peptide)
peptide: ELFAFFSSRFFSVDDCCSHFLSSYDCSISDLMLERTPFTNFVALSSPNRFASNSC
B19: M08_40L_0105_0913 (peptide)
peptide: ELRYYFEEHCSCYYYTENDHNCYWDDHYNSYYVVQYNHKYYWDYHYDCYYVVEKHSNSC
B20: M08_40L_0105_0915 (peptide)
peptide: ELLLGTPQNNAQAEVNLNINIGGPRYVGNYGPDFIYLDDYGFAVSWGWDYDVIRPGNSC
B21: M09_40L_0105_0918 (peptide)
peptide: ELLFNHKYYWDYHYDCYYVVEKHCKYYYWNTYKEYNYWEKHKDDKCYWNYHYDCYYVVEKHCKYYYWNTYKEYNYWEKHKDSN
B22: M09_40L_0105_0919 (peptide)
peptide: ELRWEVWCDGMEVSQFTYFQQVGGHDCRPVSGELTYGLERLAMYVLGIDHVMDMPFNDPCGPTPLTYGN
B23: M09_40L_0105_0920 (peptide)
peptide: ELLKHSDLFCELPDKFYDSAFLDRIHFYIPGWEVDIIRGEMFSNSN
B24: M09_40L_0105_0927 (peptide)
peptide: ELRCYYYTENDHNYYWDDHYNSYYVVQYNHKYYWDYHYDCYYVVEKHCN
B25: M09_40L_0105_0933 (peptide)
peptide: ELLSLYCRNHRVECFCCHTGGDRSELPSTHYSTSSGFMQVYDFFGVPFVLEYSN
B26: C03_40L_0105_0953 (peptide)
peptide: B12 peptide with P32L
B27: C03_40L_0105_0955 (M09) (peptide)
peptide: PLFSENATRVELCLFDETGQTQTHCLDLPSYEGGIWYGYLPGIREGQTYGYRVHGPHAPEEGHRFNPN
B28: C03_40L_0205_0991 (peptide)
peptide: LGADFDGEGTNFPLFSENATRVELCLFDETGQTQTHCLDLPSYEGGIWYGYLLGADFDGEGSNSC
B29: C02_40L_0204_0993 (peptide)
peptide: LGYPDLDLIVFPEYSTQGLNTAIWTYDEMLLTVDSPEIGVFYYFGEGTV
B30: M09_40L_0204_1008 (peptide)
peptide: LFIGAPNLHWPDTINSWLEEDRVLFTCDSFGCHYCNEAMYDDLC
B31: M09_40L_0205_1012 (peptide)
peptide: LMFDRIVRIEAEGGKYGKGYVEAEFDIRPDLWFFDCHFIGDPVMPGCLGLDAMWQLVGFFQ
B32: M09_40L_0205_1019 (peptide)
peptide: LIHEAIGDQLTCVFVDTGLLRKNEADQVVTLFRDHYNIPLVHVDAGDLFLGELAGVSDPETK
B33: C02_40L_0304_1021 (peptide)
peptide: PEDRFFWVSDIGWMMGPWTLIGNHTFAGTIFMYEGAPDYPNPDRFWEMIERH
B34: C02_40L_0304_1023 (peptide)
peptide: PELAREAAYKGANVYIRISGYSTQVNDQWIWTNRTNAWQNLMYTMSVNLAGYDGVFYYFGEGTVCNYDGNVIQQ
B35: C02_40L_0505_1073 (peptide)
peptide: LYLGSLRALGIDPAAHDIRFVEDDWESPTLGAWGPGWEVWLN
B36: C02_40L_0604_1085 (peptide)
peptide: LVNGEYDLSVMYWTNDILDPDQKTTFVLGHDVNMTWDMLVNGEYDLSVMYWTNDILDPDQKTTFVLGHDVNMSNSC
B37: C02_40L_0604_1089 (peptide)
peptide: QTAKEIHFGFDQKPEDRFFWVSDIGWMMGPWTLIGNHTFAGTIFMYEGAPDYPNPDRFWEMIERH
B38: C02_40L_0605_1092 (peptide)
peptide: PGVDLGVQLLFQTVECGDGVSGVSWFDELSYVDFAIDAEKFQGPGQFQLTRVFGDYECPPVFLSGGDVPRCWVAVRGFEFFS
B39: C02_40L_0705_1112 (peptide)
peptide: LWDWIPFPGTEGIYFYRDWDADSDSPDGELFGGSLVNLELTLETYDPDDAAPWAWNLPSDLFQEQYENWSEFHKILQN
B40: C02_40L_0804_1146 (peptide)
peptide: RLMHCLWEIIDNSVDEALGGYCDHIDVILHDDGSVEVRDNGR
B41: C02_40L_0804_1170 (M08) (peptide)
peptide: B27 peptide with V53A
B42: M09_40L_0203_1004 (peptide)
peptide: LCEYEHAARYVSEVECNWKTFAGNYSECDHCHANHQDWITDIELAESELEVNDYHWILHCTHDEDVEDEMRIHDEHEAKFYYFWPNFN
B43: C02_40L_0803_1145 (peptide)
peptide: RGIEVGDPSSGNETGPTGKPFTTTIPSEVGATEISGSGKEIQPAQLMNDLPNSESAEQVRERTRDLVQWFNYALPDFVFVEEDSGYWGDTQDFSMPTGDDYELNTCIFSWYWCGLWSCDNRGGRIVCLRENRYTSEYTGWCN
B44: C02_40L_0803_0889 (peptide)
peptide: LPKYGTDEKQDALRRYYAAYFNVEGGDSGTFTDYKWDCLWSCDNRGGRIVCLRENRYTSEYTGWCN
B45: C02_40L_0803_1116 (peptide)
peptide: B32 peptide with K62N
B46: C02_40L_0504_1056 (peptide)
peptide: LWTLQVTGPDGVETYTTNFLWMCQGYYRHSVGYTPEWPGMADFGGSIVHPQTWPADLDLK
B47: C02_40L_0605_1091 (peptide)
peptide: B46 peptide

The binders below were run against T1, CD40 ligand (assay: phage display screen on CD40L).
B1 was tested, and the binding was “binds”. In the case of B2, the binding is reported as “binds”. For B3, the binding was “binds”. For B4, the binding was “binds”. B5 was tested, and the binding was “binds”. With B6 the binding was “binds”. B7 was tested, and the binding was “binds”. B8 was tested, and the binding was “binds”. B9 was tested, and the binding was “binds”. With B10 the binding was “binds”. B11 was tested, and the binding was “binds”. With B12 the binding was “binds”. B13 was tested, and the binding was “binds”. B14 was tested, and the binding was “binds”. In the case of B15, the binding is reported as “binds”. With B16 the binding was “binds”. For B17, the binding was “binds”. B18 was tested, and the binding was “binds”. With B19 the binding was “binds”. With B20 the binding was “binds”. B21 was tested, and the binding was “binds”. With B22 the binding was “binds”. For B23, the binding was “binds”. With B24 the binding was “binds”. In the case of B25, the binding is reported as “binds”. B26 was tested, and the binding was “binds”. B27 was tested, and the binding was “binds”. In the case of B28, the binding is reported as “binds”. B29 was tested, and the binding was “binds”. In the case of B30, the binding is reported as “binds”. B31 was tested, and the binding was “binds”. For B32, the binding was “binds”. For B33, the binding was “binds”. With B34 the binding was “binds”. For B35, the binding was “binds”. For B36, the binding was “binds”. With B37 the binding was “binds”. B38 was tested, and the binding was “binds”. For B39, the binding was “binds”. With B40 the binding was “binds”. For B41, the binding was “binds”. With B42 the binding was “binds”. For B43, the binding was “binds”. B44 was tested, and the binding was “binds”. With B45 the binding was “binds”. B46 was tested, and the binding was “binds”. B47 was tested, and the binding was “binds”.
